Test results reported in the supplement of paper PMC10849652.
The list shows a part of the results.

By UniProt entry, the sequences of proteins in these tests, tags left out. Where a name states a change or a piece, a line headed by the entry shows the natural chain unless it says otherwise.
UniProt O60331: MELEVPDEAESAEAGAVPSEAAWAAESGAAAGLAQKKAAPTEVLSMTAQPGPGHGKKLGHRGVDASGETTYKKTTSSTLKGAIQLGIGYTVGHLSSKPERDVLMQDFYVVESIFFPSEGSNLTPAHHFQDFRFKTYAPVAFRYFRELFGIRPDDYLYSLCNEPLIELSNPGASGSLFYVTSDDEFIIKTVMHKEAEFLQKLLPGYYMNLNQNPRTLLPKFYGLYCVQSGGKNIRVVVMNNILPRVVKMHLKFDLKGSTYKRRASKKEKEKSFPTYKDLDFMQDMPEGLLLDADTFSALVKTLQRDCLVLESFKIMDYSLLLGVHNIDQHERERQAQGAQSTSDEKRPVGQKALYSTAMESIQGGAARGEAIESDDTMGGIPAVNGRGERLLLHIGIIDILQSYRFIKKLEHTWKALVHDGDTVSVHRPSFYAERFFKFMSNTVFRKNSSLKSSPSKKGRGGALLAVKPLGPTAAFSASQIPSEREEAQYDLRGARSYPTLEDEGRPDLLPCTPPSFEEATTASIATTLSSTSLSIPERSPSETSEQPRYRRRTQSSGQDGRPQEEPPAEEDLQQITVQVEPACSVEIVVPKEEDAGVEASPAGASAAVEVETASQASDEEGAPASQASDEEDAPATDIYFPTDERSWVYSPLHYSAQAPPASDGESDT
UniProt P0C869: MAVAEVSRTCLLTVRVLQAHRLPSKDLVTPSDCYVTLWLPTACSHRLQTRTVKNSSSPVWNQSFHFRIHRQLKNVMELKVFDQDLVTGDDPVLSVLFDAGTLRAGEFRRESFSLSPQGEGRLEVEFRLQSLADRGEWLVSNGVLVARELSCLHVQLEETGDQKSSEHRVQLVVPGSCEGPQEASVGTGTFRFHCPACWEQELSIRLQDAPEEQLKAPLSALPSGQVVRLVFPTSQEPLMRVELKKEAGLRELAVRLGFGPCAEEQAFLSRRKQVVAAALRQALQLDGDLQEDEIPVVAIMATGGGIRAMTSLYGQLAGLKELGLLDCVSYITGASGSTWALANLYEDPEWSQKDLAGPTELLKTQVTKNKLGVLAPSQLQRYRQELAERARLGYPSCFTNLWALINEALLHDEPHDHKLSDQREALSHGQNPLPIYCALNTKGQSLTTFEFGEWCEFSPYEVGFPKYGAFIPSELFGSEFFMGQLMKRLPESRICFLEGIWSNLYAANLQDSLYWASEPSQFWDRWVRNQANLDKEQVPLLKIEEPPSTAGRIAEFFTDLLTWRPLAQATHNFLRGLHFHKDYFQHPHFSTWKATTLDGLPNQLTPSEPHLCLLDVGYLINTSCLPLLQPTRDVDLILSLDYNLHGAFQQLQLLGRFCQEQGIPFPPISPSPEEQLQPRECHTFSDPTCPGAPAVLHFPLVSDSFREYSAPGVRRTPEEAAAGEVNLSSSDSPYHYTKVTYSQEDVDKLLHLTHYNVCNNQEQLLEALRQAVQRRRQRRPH
UniProt P16118: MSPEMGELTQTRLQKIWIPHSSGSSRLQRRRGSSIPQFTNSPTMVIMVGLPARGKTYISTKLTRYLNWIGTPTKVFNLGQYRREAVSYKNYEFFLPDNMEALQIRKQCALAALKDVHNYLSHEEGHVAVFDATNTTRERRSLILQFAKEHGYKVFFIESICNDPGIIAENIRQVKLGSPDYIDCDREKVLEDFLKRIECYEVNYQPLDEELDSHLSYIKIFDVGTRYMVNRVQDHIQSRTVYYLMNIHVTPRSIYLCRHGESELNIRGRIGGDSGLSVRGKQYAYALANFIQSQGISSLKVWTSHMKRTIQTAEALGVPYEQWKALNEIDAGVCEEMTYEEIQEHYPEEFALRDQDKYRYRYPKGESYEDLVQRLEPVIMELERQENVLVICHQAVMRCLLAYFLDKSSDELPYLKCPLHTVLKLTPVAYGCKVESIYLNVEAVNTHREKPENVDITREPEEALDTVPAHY
UniProt Q8WXW3: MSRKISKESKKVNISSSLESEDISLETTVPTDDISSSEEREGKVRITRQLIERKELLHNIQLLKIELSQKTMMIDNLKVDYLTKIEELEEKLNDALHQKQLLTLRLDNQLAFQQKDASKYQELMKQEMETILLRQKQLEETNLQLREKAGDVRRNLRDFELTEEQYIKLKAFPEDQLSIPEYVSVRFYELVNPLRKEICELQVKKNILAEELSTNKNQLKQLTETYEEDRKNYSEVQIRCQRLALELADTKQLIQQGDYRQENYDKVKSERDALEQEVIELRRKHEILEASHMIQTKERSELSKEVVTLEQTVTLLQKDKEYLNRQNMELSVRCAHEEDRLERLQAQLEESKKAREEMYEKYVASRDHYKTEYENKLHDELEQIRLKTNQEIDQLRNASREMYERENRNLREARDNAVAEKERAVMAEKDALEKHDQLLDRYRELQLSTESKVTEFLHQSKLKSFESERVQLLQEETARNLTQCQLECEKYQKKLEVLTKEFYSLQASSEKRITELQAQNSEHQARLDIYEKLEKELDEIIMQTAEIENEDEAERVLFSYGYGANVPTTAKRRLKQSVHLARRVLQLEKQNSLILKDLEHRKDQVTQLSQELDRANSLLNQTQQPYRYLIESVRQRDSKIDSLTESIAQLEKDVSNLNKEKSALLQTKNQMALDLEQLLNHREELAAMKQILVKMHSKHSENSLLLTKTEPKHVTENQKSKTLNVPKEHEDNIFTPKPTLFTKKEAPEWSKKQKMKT
UniProt Q96BK5: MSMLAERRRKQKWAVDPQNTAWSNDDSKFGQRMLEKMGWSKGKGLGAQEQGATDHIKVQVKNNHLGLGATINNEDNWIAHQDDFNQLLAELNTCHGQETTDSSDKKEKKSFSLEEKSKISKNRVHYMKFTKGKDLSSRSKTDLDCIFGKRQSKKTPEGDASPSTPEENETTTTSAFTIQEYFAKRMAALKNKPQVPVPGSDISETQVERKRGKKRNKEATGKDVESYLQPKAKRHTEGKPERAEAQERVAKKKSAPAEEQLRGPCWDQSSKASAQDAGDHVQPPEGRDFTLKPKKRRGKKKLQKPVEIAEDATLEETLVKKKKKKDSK
UniProt Q8TEQ8: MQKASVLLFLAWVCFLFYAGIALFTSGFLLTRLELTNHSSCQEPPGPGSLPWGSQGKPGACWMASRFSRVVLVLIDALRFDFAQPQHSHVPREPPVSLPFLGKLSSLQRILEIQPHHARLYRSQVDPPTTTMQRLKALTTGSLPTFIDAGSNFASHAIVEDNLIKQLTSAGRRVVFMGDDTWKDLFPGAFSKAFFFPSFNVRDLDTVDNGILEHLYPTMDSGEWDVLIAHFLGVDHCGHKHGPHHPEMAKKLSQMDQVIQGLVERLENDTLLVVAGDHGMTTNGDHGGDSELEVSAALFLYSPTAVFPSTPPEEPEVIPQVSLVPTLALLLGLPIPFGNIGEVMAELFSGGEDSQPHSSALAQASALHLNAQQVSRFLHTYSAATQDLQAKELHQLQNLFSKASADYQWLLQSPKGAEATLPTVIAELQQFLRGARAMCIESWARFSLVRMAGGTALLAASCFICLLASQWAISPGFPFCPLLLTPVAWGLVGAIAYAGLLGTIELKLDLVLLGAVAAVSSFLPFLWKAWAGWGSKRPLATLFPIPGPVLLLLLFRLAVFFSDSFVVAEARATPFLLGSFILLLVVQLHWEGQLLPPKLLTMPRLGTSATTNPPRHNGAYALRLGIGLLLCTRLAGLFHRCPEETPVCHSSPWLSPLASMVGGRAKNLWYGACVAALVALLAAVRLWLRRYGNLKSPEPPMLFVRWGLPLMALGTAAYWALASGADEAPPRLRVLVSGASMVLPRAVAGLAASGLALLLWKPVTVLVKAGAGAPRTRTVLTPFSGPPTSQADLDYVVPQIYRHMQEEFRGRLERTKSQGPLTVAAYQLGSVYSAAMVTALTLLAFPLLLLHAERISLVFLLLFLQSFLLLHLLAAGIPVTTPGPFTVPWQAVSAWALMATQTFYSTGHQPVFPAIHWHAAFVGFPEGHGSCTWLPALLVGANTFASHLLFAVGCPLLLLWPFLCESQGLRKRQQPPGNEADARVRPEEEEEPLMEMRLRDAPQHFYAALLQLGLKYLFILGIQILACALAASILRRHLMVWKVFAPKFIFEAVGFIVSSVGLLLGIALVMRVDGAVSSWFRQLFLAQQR
UniProt Q8IUZ5: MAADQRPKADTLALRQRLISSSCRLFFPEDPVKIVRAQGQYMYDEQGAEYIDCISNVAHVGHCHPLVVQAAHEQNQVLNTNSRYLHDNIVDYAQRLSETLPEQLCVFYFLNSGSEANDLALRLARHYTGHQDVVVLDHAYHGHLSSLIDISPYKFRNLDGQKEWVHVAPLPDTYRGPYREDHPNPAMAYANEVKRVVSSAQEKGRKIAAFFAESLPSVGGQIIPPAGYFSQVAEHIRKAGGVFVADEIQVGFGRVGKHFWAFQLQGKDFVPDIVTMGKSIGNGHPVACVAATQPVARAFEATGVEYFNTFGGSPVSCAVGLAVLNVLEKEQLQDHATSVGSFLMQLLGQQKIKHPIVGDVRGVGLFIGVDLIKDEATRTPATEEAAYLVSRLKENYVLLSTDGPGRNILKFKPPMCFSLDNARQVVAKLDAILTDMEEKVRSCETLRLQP
UniProt O60346: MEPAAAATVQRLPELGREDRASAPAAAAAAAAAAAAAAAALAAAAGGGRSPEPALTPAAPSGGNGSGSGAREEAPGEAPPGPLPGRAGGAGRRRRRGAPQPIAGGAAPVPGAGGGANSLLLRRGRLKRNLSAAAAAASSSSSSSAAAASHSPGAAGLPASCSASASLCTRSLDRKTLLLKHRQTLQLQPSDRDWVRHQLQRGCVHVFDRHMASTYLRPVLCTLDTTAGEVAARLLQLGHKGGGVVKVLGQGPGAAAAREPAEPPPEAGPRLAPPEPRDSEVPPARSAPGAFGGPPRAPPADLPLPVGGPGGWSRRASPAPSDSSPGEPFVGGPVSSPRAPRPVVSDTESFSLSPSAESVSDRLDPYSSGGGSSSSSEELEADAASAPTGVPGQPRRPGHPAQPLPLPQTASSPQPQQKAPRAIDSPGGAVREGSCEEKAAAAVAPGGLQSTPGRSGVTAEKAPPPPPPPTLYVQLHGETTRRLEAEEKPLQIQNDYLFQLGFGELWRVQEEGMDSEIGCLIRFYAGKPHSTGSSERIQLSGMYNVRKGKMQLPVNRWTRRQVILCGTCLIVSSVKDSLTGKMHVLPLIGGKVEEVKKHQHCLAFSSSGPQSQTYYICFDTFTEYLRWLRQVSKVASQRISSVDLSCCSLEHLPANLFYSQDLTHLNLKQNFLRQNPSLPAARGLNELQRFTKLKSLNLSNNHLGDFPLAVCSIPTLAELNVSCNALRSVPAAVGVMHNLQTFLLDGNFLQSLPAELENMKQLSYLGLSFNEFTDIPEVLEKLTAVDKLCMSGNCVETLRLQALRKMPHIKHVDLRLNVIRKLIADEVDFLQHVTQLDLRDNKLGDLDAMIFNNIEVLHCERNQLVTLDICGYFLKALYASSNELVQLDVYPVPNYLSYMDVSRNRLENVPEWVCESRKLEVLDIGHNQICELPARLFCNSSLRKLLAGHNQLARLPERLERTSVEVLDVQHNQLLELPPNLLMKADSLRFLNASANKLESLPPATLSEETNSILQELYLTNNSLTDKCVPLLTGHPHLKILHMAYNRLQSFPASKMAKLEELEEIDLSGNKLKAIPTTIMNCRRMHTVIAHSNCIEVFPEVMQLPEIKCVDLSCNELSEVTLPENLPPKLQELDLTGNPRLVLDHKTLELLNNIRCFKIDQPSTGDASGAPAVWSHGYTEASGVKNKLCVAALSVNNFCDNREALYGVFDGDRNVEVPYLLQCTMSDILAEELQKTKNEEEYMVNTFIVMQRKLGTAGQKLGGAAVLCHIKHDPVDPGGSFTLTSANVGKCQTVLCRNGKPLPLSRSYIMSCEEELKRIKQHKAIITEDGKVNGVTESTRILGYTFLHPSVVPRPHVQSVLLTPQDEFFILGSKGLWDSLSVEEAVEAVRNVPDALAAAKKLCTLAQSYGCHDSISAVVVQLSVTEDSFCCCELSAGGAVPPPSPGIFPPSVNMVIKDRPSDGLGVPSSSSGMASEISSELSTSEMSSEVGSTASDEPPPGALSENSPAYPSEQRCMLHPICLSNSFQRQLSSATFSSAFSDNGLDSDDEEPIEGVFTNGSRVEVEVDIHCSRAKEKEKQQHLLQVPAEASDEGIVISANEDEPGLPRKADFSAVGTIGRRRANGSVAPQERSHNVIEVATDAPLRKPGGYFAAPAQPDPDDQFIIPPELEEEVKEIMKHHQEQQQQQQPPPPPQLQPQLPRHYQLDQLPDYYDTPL
UniProt Q7Z412: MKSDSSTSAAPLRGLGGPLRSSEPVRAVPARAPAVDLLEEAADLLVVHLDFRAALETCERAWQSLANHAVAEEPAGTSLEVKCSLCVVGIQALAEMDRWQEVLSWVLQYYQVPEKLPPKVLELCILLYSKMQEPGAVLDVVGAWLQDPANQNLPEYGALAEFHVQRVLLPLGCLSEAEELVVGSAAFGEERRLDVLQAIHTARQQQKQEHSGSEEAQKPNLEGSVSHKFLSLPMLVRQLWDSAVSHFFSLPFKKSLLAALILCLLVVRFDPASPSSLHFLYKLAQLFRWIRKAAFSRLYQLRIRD

These targets were tested with CN(CCOC1=CC=C(C=C1)C[C@H]2C(=O)NC(=O)S2)C3=CC=CC=N3 (racemic) [rosiglitazone] (assay: log2 fold change, soluble protein after heating vs DMSO (PISA); higher = thermal stabilisation; K562 cells, 10 uM, 30 min; active = over 0.2 and 3.5 SD of the protein, either way, in both replicates (recomputed)).
Method in brief: (§1)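 Quantification of soluble protein used TMTpro 16plex LC-MS/MS, with channel sums equalised. Samples were the supernatant after 21,000xg for 90 min of pooled aliquots from K562 cells (2×10^6 cells/mL) treated with 10 μM compound for 30 min, heated for 3 min over 48°C-58°C, and extracted in PBS with 0.5% NP-40 at 4°C. Values, from duplicates, describe thermal stability against control samples on a log2 fold-change scale.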

Q: How did the log2 fold change turn out when PIP5K1C isoform 3 (UniProt O60331) was run?
A: inactive: 0.139

Q: Which log2 fold change does the source give for PLA2G4B isoform 6 (UniProt P0C869) here?
A: inactive: 0.183

Q: Which log2 fold change does the source give for PFKFB1 (UniProt P16118) here?
A: inactive: 0.033

Q: Which log2 fold change does the source give for PKLR (UniProt F8W6W2) here?
A: inactive: 0.385

Q: With PGD (UniProt K7EM49) as the target, how does the log2 fold change read?
A: inactive: -0.043

Q: For PIK3CA (UniProt P42336), which log2 fold change is on record?
A: inactive: -0.001

Q: For PIBF1 (UniProt Q8WXW3), which log2 fold change is on record?
A: inactive: -0.052

Q: PIAS1 isoform 2 (UniProt O75925) was tested. Which log2 fold change did it give?
A: inactive: 0.1

Q: How did the log2 fold change turn out when PHOSPHO2 (UniProt Q8TCD6) was run?
A: inactive: -0.032

Q: With PINX1 (UniProt Q96BK5) as the target, how does the log2 fold change read?
A: inactive: -0.419

Q: How did the log2 fold change turn out when PLEKHB2 isoform 2 (UniProt Q96CS7) was run?
A: inactive: -0.027

Q: With PIGO (UniProt Q8TEQ8) as the target, how does the log2 fold change read?
A: inactive: 0.107

Q: PFKM (UniProt F8VTQ3) was tested. Which log2 fold change did it give?
A: inactive: 0.176

The targets below were run with CN1C2=C(C3=C1C(=O)N(N=C3)CC4=CC(=CC=C4)N)SC(=C2)S(=O)C in the same assay as above.
Method in brief: as §1

Q: With PIP5K1C isoform 3 (UniProt O60331) as the target, how does the log2 fold change read?
A: inactive: -0.046

Q: Which log2 fold change does the source give for PIAS4 (UniProt Q8N2W9) here?
A: inactive: 0.173

Q: Which log2 fold change does the source give for PLA2G4B isoform 6 (UniProt P0C869) here?
A: inactive: -0.031

Q: With PGM1 isoform 2 (UniProt P36871) as the target, how does the log2 fold change read?
A: inactive: 0.228

Q: How did the log2 fold change turn out when PEX5 isoform 4 (UniProt P50542) was run?
A: inactive: 0.366

Q: PHF14 (UniProt O94880) was tested. Which log2 fold change did it give?
A: inactive: 0.091

Q: Which log2 fold change does the source give for PIBF1 (UniProt Q8WXW3) here?
A: inactive: 0.534

Q: How did the log2 fold change turn out when PHOSPHO2 (UniProt Q8TCD6) was run?
A: inactive: -0.06

Q: With PINX1 (UniProt Q96BK5) as the target, how does the log2 fold change read?
A: inactive: 0.337

Q: How did the log2 fold change turn out when PKNOX1 (UniProt P55347) was run?
A: inactive: 0.004

Q: For PLEKHB2 isoform 2 (UniProt Q96CS7), which log2 fold change is on record?
A: inactive: -0.079

Q: PKN2 (UniProt Q16513) was tested. Which log2 fold change did it give?
A: inactive: 0.027

Q: PHYKPL (UniProt Q8IUZ5) was tested. Which log2 fold change did it give?
A: inactive: -0.219

Q: How did the log2 fold change turn out when PHLPP1 (UniProt O60346) was run?
A: inactive: 0.185

Q: PHETA1 isoform 4 (UniProt Q8N4B1) was tested. Which log2 fold change did it give?
A: inactive: -0.147

Q: For PEX26 (UniProt Q7Z412), which log2 fold change is on record?
A: inactive: -0.103

The targets below were run with CN1CCC(CNc2ccc3ncc(-c4cccc(OC(F)(F)F)c4)n3n2)CC1 in the same assay as above.
Method in brief: as §1

Q: PIP5K1C isoform 3 (UniProt O60331) was tested. Which log2 fold change did it give?
A: inactive: -0.469

Q: PIAS4 (UniProt Q8N2W9) was tested. Which log2 fold change did it give?
A: inactive: 0.062

Q: For PLA2G4B isoform 6 (UniProt P0C869), which log2 fold change is on record?
A: inactive: -0.05

Q: For PFKFB1 (UniProt P16118), which log2 fold change is on record?
A: inactive: 0.195

Q: PIM1 isoform 2 (UniProt P11309) was tested. Which log2 fold change did it give?
A: active: 2.26

Q: For PHF14 (UniProt O94880), which log2 fold change is on record?
A: inactive: 0.1

Q: For PGD (UniProt K7EM49), which log2 fold change is on record?
A: inactive: -0.3

Q: For PIMREG (UniProt Q9BSJ6), which log2 fold change is on record?
A: inactive: 0.118

Q: With PINX1 (UniProt Q96BK5) as the target, how does the log2 fold change read?
A: inactive: 0.406

Q: For PKN2 (UniProt Q16513), which log2 fold change is on record?
A: active: -0.288

Q: With PHYKPL (UniProt Q8IUZ5) as the target, how does the log2 fold change read?
A: inactive: -0.152

Q: How did the log2 fold change turn out when PHETA1 isoform 4 (UniProt Q8N4B1) was run?
A: inactive: -0.031

Q: How did the log2 fold change turn out when PFKM (UniProt F8VTQ3) was run?
A: inactive: 0.057

Q: Which log2 fold change does the source give for PEX26 (UniProt Q7Z412) here?
A: inactive: 0.067
